Values of other authors in patent US20170363612A1, “COMPOSITIONS AND METHODS RELATING TO PROLIFERATIVE DISORDERS” (Wayne State University, priority 2014, published 2017).

Settings: cited from earlier work

SMILES: CC(=O)O[C@H]1C(=O)[C@@]2(C)[C@H]([C@H](OC(=O)c3ccccc3)[C@]3(O)C[C@H](OC(=O)[C@H](O)[C@@H](NC(=O)c4ccccc4)c4ccccc4)C(C)=C1C3(C)C)[C@]1(OC(C)=O)CO[C@@H]1C[C@@H]2O [Paclitaxel, 5β,20-epoxy-1,2α,4,7β,10β,13α-hexahydroxytax-1-1-en-9-14,10-diacetate 2-benzoate 13-ester with (2R,3S)-N-benzoyl-3-phenylisoserine]
- solubility in water: less than 0.01 mg/ml
